At least one structure is not confirmed: it was looked up by name or label, or the drawing left a doubt.
System: MCF-7 breast cancer xenografts
Test: MCF-7 kidney capsule xenografts
Settings: 28 days; E2 0.5 mg/h, Calycosin 2.5 mg/h in saline; FIG. 5

For `C[C@]12CC[C@@H]3c4ccc(O)cc4CC[C@H]3[C@@H]1CC[C@@H]2O` [E2, estradiol], the “growth of MCF-7 kidney capsule xenografts as compared to control” value was “agonizes tumor xenograft growth”.
